Data on one substance can be found in PMC3154509.

Sequences of proteins named here, by UniProt entry; tags and fusion partners are left off.
UniProt O60674: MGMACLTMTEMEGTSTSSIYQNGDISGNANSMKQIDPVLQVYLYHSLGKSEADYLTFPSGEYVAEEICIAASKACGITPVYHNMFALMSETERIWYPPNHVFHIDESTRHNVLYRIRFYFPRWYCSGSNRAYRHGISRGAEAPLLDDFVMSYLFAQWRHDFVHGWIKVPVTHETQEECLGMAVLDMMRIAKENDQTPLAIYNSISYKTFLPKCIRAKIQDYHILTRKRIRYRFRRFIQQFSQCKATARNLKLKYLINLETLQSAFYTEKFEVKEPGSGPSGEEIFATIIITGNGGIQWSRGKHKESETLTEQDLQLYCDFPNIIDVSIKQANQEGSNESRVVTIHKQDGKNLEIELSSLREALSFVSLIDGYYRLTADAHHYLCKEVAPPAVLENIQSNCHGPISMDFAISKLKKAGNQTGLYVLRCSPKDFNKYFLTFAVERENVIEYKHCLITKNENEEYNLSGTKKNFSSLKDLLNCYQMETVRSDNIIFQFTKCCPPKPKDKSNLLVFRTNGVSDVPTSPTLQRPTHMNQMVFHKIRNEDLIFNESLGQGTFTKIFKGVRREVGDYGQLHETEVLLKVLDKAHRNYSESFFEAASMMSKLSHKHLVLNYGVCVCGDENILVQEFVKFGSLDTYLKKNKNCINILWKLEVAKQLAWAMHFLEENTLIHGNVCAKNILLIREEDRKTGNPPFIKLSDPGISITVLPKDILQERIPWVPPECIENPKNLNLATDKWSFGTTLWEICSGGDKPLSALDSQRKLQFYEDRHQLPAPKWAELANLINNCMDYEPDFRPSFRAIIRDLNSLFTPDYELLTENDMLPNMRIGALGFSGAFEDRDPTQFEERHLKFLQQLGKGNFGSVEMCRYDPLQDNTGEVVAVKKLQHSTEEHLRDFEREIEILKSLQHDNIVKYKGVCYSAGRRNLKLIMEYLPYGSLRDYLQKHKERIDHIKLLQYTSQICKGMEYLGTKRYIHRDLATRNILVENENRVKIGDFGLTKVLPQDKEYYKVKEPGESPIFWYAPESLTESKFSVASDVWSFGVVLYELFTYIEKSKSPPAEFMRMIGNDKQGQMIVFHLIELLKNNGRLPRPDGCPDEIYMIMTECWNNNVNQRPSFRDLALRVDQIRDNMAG
UniProt Q9UQQ2: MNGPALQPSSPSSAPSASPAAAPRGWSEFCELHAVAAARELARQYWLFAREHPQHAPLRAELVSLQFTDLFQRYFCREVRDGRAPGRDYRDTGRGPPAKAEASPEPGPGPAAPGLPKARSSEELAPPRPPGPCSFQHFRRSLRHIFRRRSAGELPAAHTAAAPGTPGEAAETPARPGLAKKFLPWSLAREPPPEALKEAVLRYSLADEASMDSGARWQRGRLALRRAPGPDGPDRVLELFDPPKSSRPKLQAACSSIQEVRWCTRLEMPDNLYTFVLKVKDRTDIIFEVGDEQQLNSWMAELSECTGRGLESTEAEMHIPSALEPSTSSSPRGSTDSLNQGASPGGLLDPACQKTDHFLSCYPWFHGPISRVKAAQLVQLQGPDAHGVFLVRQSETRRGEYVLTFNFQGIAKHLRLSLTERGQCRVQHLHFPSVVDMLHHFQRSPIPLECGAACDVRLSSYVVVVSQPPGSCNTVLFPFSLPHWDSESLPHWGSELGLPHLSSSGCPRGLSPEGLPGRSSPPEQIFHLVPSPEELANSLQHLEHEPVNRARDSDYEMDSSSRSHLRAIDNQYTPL

Results are given in words; binding and its absence hold for the method and conditions named. In cells and extracts the contact can be indirect. Some results given as binding are weak or reduced against the parent protein; the word gives no strength.

This assay deals with Jak2 tyrosine kinase (endogenous, M-MOK cells) (human (endogenous in M-MOK)) (UniProt O60674). The experiment in a line: co-IP; as a1, but cells not stimulated with TPO; anti-Jak2 immunoprecipitation, blot with anti-pentaHis; only the binder purified.

For the substance “WT Lnk R8 fusion protein (human wild-type Lnk-6×His-R8) (from UniProt Q9UQQ2 1-575)”, the binding result is “binds weakly”.
